Experimental data taken from paper doi:10.1101/2024.07.24.604958.
No constants are given. Whether binding was seen depends on the method and setting. For some assays here: Binding seen in cells or lysates may run through a third protein. Some binding calls cover weakened binding; strength is not graded here. Blank lines part the entries; values can stand above or below the binder they belong to.

Key:
[1] = target: T1, CIB2 (calcium and integrin-binding protein 2), wild type (mouse) (UniProt Q9Z309); assay: ITC
T1 sequence: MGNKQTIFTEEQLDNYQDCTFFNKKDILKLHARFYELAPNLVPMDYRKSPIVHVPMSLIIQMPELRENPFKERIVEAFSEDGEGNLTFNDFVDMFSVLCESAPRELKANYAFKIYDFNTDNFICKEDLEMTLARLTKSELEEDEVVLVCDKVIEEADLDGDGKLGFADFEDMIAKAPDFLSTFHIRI

[2] = target: T2, full-length TMC1 expressed in HEK 293 cells (mouse) (UniProt Q8R4P5); assay: co-IP
T2 sequence: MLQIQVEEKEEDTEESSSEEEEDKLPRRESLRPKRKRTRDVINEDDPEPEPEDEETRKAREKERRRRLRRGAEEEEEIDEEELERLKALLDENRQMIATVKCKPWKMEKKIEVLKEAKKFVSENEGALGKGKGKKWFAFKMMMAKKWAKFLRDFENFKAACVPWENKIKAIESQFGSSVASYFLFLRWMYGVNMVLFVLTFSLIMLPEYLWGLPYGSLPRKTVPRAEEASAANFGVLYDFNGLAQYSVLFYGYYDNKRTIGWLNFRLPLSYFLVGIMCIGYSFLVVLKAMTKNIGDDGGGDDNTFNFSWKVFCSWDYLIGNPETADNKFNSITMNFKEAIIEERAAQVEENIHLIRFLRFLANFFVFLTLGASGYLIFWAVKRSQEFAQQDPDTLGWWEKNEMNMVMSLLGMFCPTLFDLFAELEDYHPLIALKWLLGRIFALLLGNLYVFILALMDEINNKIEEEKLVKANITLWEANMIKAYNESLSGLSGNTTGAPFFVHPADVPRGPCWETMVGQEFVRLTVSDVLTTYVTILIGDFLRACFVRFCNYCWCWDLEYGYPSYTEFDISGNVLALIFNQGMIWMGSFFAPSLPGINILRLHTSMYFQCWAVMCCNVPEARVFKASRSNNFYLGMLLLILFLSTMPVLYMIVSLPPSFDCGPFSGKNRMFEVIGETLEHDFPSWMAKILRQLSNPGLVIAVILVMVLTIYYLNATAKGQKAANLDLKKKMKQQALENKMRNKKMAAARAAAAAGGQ

- binding [1]: no binding (condition: with 10 mM CaCl2)
Binder: KGQKAANLDLKKKMKQQALENKMRNKKMAAARAAAAAGGQ (domain or fragment, UniProt Q8R4P5 718-757) [TMC1 cytosolic region 3 (CR3, amino acids 718-757)]

- binding [2]: binds
B1: CIB2 expressed in HEK 293 cells (protein, UniProt Q9Z309 1-187)
chain: T1 sequence
